The record followed here is article PMC3735429, “Plasmodium falciparum encodes a conserved active inhibitor-2 for Protein Phosphatase type 1: perspectives for novel anti-plasmodial therapy” (BMC Biology, 2013).

Results are given in words; binding and its absence hold for the method and conditions named. In cells and extracts the contact can be indirect. A result given as binding can be weak or reduced; the word gives no strength. Tags and fused reporters may be left off the sequences shown.

The test deals with T1, His6-PfI2WT (Plasmodium falciparum) (UniProt C0H480).
T1 sequence: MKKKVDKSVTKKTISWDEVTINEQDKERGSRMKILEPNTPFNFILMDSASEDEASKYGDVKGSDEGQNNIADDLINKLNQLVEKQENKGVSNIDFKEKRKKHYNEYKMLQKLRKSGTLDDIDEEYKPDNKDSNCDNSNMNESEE
Kind of test: co-IP; only the target purified.

With “Xenopus PP1 (from UniProt P36874) (enzyme)”, the binding entry is listed as “binds”.
